Test results: the supplement of paper PMC12067093, “Discovery and optimisation of a covalent ligand for TRIM25 and its application to targeted protein ubiquitination” (Chemical Science, 2025)
Some of the results follow.

Target: T1, NTAN1_Q96AB6_75_DGSISILGSDDATTCHIVVLR (UniProt Q96AB6)
T1 sequence (whole entry): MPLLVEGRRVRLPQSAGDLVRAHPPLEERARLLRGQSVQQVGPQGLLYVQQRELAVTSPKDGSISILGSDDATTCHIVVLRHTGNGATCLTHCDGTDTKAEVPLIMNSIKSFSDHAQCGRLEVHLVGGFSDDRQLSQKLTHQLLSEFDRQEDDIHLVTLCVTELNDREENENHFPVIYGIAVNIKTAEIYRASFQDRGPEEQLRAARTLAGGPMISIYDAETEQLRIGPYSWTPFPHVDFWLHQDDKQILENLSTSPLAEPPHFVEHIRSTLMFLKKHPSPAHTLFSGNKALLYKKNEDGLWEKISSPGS
Assay: probe-labelled cysteine peptide fold change vs DMSO (competition) (log2 fold change); higher = less target engagement (more negative = stronger competition)
Conditions: THP-1, incubation time: 4 h
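Also: competitive chemoproteomic profiling in live THP-1 cells with an iodoacetamide desthiobiotin (IA-DTB) probe, comparing probe-labelled peptide intensities in compound-treated cells against DMSO-treated controls.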

SMILES: CC1Cc2ccccc2N1C(=O)C1CCCN(C(=O)CCl)C1 (mixture of isomers) [TRIM25 ligand 11 (diastereomer mixture)]
- probe-labelled cysteine peptide fold change (10 µM): -0.125
- probe-labelled cysteine peptide fold change (50 µM): -0.0511
